Test results reported in paper PMC7060279.

Sequences of proteins named here, by UniProt entry; tags and fusion partners are left off. A change or cut given only in a name is not applied to a line headed by its entry. Residues count along the entry.
UniProt P18406: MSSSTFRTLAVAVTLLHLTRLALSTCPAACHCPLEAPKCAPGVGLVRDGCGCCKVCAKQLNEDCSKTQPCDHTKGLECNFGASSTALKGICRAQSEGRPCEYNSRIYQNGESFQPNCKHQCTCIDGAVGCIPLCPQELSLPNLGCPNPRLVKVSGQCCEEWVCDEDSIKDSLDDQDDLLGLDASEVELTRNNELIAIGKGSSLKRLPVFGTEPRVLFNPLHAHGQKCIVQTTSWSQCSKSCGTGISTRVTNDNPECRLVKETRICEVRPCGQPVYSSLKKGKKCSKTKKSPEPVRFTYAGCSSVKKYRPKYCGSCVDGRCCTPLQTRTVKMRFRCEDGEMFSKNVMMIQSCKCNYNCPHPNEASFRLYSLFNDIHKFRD
UniProt O60603, residues 21-588: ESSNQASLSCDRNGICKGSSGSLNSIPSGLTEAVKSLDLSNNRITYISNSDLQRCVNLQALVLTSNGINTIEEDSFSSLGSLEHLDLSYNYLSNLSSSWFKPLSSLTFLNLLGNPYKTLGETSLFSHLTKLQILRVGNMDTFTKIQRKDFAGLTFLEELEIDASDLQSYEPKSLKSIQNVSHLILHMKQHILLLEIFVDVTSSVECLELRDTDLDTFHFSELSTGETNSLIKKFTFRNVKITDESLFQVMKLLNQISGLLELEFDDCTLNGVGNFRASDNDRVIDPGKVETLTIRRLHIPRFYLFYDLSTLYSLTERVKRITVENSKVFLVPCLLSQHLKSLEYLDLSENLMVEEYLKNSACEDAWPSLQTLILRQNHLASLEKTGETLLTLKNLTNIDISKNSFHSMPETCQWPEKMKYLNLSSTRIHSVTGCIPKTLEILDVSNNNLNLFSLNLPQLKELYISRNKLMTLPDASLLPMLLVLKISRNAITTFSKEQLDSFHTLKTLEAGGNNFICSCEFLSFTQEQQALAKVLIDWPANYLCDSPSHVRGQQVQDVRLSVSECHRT
UniProt O00206, residues 24-631: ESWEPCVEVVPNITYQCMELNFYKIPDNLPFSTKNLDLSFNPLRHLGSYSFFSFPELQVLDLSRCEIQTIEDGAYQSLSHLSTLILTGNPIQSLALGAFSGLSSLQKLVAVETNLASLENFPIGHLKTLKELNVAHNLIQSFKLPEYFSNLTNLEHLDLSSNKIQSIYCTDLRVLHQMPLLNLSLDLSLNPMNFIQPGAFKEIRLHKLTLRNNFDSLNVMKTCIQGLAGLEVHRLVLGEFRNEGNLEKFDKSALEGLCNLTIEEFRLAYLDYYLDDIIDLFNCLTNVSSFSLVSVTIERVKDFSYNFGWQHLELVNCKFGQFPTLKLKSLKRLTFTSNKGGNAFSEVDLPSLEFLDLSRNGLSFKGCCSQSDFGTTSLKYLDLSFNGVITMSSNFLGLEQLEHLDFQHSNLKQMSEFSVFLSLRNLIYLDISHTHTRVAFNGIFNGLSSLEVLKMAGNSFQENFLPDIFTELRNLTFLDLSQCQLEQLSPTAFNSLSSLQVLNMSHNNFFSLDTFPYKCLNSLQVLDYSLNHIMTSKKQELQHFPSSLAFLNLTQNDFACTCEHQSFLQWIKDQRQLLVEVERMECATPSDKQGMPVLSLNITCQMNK

Experiments:
CCN1-DM mutant protein [1] = target: CCN1-DM mutant protein (UniProt P18406); experiment: condition: 5 µg in 5 ml PBS (methods); 2 µg in PBS; far-Western, overlay or dot blot; dot blot: CCN1-WT, -D125A and -DM (1 µg each) spotted on nitrocellulose, incubated with hTLR2 or hTLR4 in PBS; bound TLRs detected with polyclonal anti-hTLR2 or anti-hTLR4 antibodies; both purified
CCN1-DM mutant protein [2] = target: CCN1-DM mutant protein (UniProt P18406); experiment: far-Western, overlay or dot blot; dot blot: CCN1-WT, -D125A and -DM (1 µg each) spotted on nitrocellulose, incubated with hTLR2 or hTLR4 in PBS; bound TLRs detected with polyclonal anti-hTLR2 or anti-hTLR4 antibodies; both purified

binding (CCN1-DM mutant protein [1])	binding (CCN1-DM mutant protein [2])	Substance
no binding		human recombinant TLR2 protein (from UniProt O60603 21-588) (receptor)
	binds	human recombinant TLR4 protein (without MD2) (from UniProt O00206 24-631) (receptor)

Results are given in words; binding and its absence hold for the method and conditions named. For some assays here: Binding calls can cover weak binding; strength is not graded here.
